In PubChem BioAssay AID248 (DTP/NCI, 2004) one finds T/C and survivor count data, which are given here for 25 compounds.

The list shows only some results of the screen, not a fair sample: it is rich in T/C values a quarter to a half above the control, in often repeated tests (any T/C) and in doses without a T/C. Other doses and runs of a compound stand elsewhere. T/C is the treated group as % of the vehicle group. Some doses have a count of surviving animals in place of a T/C: the source holds a T/C of zero for them, seemingly a mark for toxic or unscored doses. Some survivor counts are full or nearly so, which does not show that the dose was tolerated: the source hardly ever lists a survival T/C far under the control, and the zero likely stands for such cases as well. Counts of survivors are from the toxicity check (mostly the fifth day) where no day follows; animals may have died later. Schedules are NCI's codes, read here as Q, the interval in days (D) or hours (H), X, the number of doses. Where survival is the endpoint, this PubChem deposit counts one and a half times the control or more as active, and values a quarter to a half above the control carry no call in these data; other NCI protocols may use other cut-offs. Some entries hold several experiments; the values are given in rising order. Signs of the kind (2×) give the number of equal values in this list. Some schedule codes hold Z or #, which are not explained here.

The test system of this test is L1210 leukemia ip in BDF1 mice, survival T/C. Kind of test: NCI In Vivo Anticancer Drug Screen. Data for tumor model L1210 Leukemia (intraperitoneal) in B6D2F1 (BDF1) mice. The following applies: T/C endpoint: mean survival time, higher T/C = longer survival.
Setting [1] is: dose: 200.0 mg/kg/injection, schedule: Q01DX001 (ip), vehicle: carboxymethylcellulose (CMC).
Setting [2] is: dose: 400.0 mg/kg/injection, schedule: Q01DX001 (ip), vehicle: carboxymethylcellulose (CMC).
Setting [3] is: dose: 200.0 mg/kg/injection, schedule: Q04DX003 (ip), vehicle: saline with Tween-80.
Where [4] appears, read: dose: 400.0 mg/kg/injection, schedule: Q04DX003 (ip), vehicle: saline with Tween-80.
The mark [5] stands for this setting: dose: 400.0 mg/kg/injection, schedule: Q01DX009 (ip), vehicle: Klucel (hydroxypropylcellulose) (HPC).
The mark [6] stands for this setting: dose: 400.0 mg/kg/injection, schedule: Q04DX003 (ip), vehicle: other.
Setting [7] is: dose: 400.0 mg/kg/injection, schedule: Q01DX009 (ip), vehicle: saline.
Setting [8] is: dose: 200.0 mg/kg/injection, schedule: Q01DX009 (ip), vehicle: Klucel (hydroxypropylcellulose) (HPC).
Where [9] appears, read: dose: 400.0 mg/kg/injection, schedule: Q04DX003 (ip), vehicle: saline.

On to `Nc1ccc2nc3ccc(=O)cc-3n(-c3ccccc3)c2c1`, for which the T/C is 127 % of control (dose: 4.0 mg/kg/injection, schedule: Q01DX Z (ip), vehicle: methylcellulose (MC)); 126 and 129 % of control (dose: 4.8 mg/kg/injection, schedule: Q01DX Z (ip), vehicle: methylcellulose (MC)); 129 and 134 % of control (dose: 7.2 mg/kg/injection, schedule: Q01DX Z (ip), vehicle: methylcellulose (MC)); 127 % of control (dose: 8.0 mg/kg/injection, schedule: Q01DX Z (ip), vehicle: methylcellulose (MC)). Also, the survivor count runs as follows: (dose: 50.0 mg/kg/injection, schedule: Q01DX001 (ip), vehicle: carboxymethylcellulose (CMC)) 0 of 4; (dose: 80.0 mg/kg/injection, schedule: Q01DX001 (ip), vehicle: carboxymethylcellulose (CMC)) 0 of 4; (dose: 100.0 mg/kg/injection, schedule: Q01DX001 (ip), vehicle: carboxymethylcellulose (CMC)) 2 of 4; under setting [1], 0 of 4; under setting [2], 0 of 4.

Take `CN(C)CC(C(=O)c1ccc(Br)cc1)C(Br)c1ccccc1` (stereo not drawn): the survivor count runs as follows: (dose: 6.25 mg/kg/injection, schedule: Q01DX009 (ip), vehicle: saline) 0 of 6; (dose: 12.5 mg/kg/injection, schedule: Q01DX009 (ip), vehicle: saline) 0 of 6; (dose: 25.0 mg/kg/injection, schedule: Q01DX009 (ip), vehicle: saline) 0 of 6; (dose: 50.0 mg/kg/injection, schedule: Q04DX003 (ip), vehicle: saline with Tween-80) 3 of 6; (dose: 100.0 mg/kg/injection, schedule: Q04DX003 (ip), vehicle: saline with Tween-80) 5 of 6; under setting [3], 3 of 6. Besides, the survivor count under setting [4] is 0 of 6.

For the compound `O=C(Nc1cccc(C(F)(F)F)c1)Nc1cccc(C(F)(F)F)c1`, the survivor count (dose: 200.0 mg/kg/injection, schedule: Q01DX001 (ip), vehicle: Klucel (hydroxypropylcellulose) (HPC)) is given as 6 of 6.

Take `CCC(CO)Nc1nc2ccc([N+](=O)[O-])cc2c2ccccc12` (stereo not drawn): under setting [5], the survivor count was 6 of 6.

As for `Nc1nc(N)c(CCCOc2ccccc2Cl)c(N)n1`, under “dose: 400.0 mg/kg/injection, schedule: Q01DX001 (ip), vehicle: Klucel (hydroxypropylcellulose) (HPC)”, the survivor count is given as 2 of 6.

In the case of `CC(C)(C)C1COP(=O)(OCc2ccccc2)OC1` (stereo not drawn), the survivor count under setting [6] is given as 6 of 6.

Regarding `CCN(CC)CCNc1cc(OC)cc2cccnc12`, the survivor count is, setting by setting: (dose: 100.0 mg/kg/injection, schedule: Q04DX002 (ip), vehicle: saline) 0 of 3; (dose: 200.0 mg/kg/injection, schedule: Q04DX002 (ip), vehicle: saline) 0 of 3; (dose: 400.0 mg/kg/injection, schedule: Q04DX002 (ip), vehicle: saline) 0 of 3.

As for `O=C(COc1ccc(Cl)c(Cl)c1)NCc1ccc[n+](CC(=O)Nc2ccc(S(=O)(=O)F)cc2)c1`, the survivor count under setting [7] is given as 3 of 6.

Take `CC(=O)N(N=Nc1ccccc1)c1cccc2ccccc12`: the survivor count under setting [5] was 6 of 6.

Regarding `OC(CCCNc1ccccc1)CCCNc1ccccc1`, the survivor count (dose: 300.0 mg/kg/injection, schedule: Q01DX001 (ip), vehicle: saline) was 1 of 6.

Regarding `CC(=O)Nc1ccc(N2CCN=N2)cc1`, the survivor count is, setting by setting: (dose: 100.0 mg/kg/injection, schedule: Q01DX009 (ip), vehicle: saline with Tween-80) 3 of 6; under setting [3], 4 of 6; under setting [4], 2 of 6.

Consider `CCCCCCCCCCCCCCCCCC[N+](C)=C1SCCS1`, for which the survivor count (dose: 12.5 mg/kg/injection, schedule: Q01DX009 (ip), vehicle: Klucel (hydroxypropylcellulose) (HPC)) is listed as 3 of 6; the survivor count (dose: 25.0 mg/kg/injection, schedule: Q01DX009 (ip), vehicle: Klucel (hydroxypropylcellulose) (HPC)) was 0 of 6; the survivor count (dose: 50.0 mg/kg/injection, schedule: Q01DX009 (ip), vehicle: Klucel (hydroxypropylcellulose) (HPC)) is recorded as 0 of 6; the survivor count (dose: 100.0 mg/kg/injection, schedule: Q01DX009 (ip), vehicle: Klucel (hydroxypropylcellulose) (HPC)) is 0 of 6; the survivor count under setting [8] is 0 of 6; the survivor count under setting [5] was 0 of 6.

As for `Cc1c2c(cc3c1[nH]c1ccccc13)C(C)N(C)CC2` (stereo not drawn), the T/C is 144 % of control (dose: 50.0 mg/kg/injection, schedule: Q01DX Z (ip), vehicle: saline) and 145 % of control (dose: 100.0 mg/kg/injection, schedule: Q01DX Z (ip), vehicle: saline). Also, for the setting “dose: 375.0 mg/kg/injection, schedule: Q01DX001 (ip), vehicle: carboxymethylcellulose (CMC)”, the survivor count is on record as 2 of 6.

Take `O=C1CCCCC1C(=O)C(F)(F)F` (stereo not drawn): the survivor count is, setting by setting: (dose: 100.0 mg/kg/injection, schedule: Q04DX003 (ip), vehicle: other) 5 of 6; (dose: 200.0 mg/kg/injection, schedule: Q04DX003 (ip), vehicle: other) 0 of 6; under setting [6], 0 of 6.

Consider `CS/C(N)=N/N`, for which the survivor count is, setting by setting: (dose: 50.0 mg/kg/injection, schedule: Q04DX003 (ip), vehicle: saline) 1 of 6; (dose: 100.0 mg/kg/injection, schedule: Q01DX001 (ip), vehicle: saline) 0 of 3.

On to `O=C1c2cccc3c([N+](=O)[O-])ccc(c23)C(=O)N1NCCO`, for which, where the note is “dose: 400.0 mg/kg/injection, schedule: Q04DX003 (ip), vehicle: carboxymethylcellulose (CMC)”, the survivor count was 1 of 6.

Turning to `CCCCCNC(C)=O`, the survivor count is, setting by setting: (dose: 100.0 mg/kg/injection, schedule: Q01DX009 (ip), vehicle: saline) 1 of 6; under setting [7], 1 of 6.

Regarding `Nc1nc2c(nnn2C2OC(COP(=O)(O)O)C(O)C2O)c(=O)[nH]1` (stereo not drawn), the T/C (dose: 40.0 mg/kg/injection, schedule: Q01DX Z (ip), vehicle: other) is 126 % of control.

In the case of `NC(CCC(=O)O)C(=O)NC(CO)C(=O)O` (stereo not drawn), under “dose: 400.0 mg/kg/injection, schedule: Q01DX001 (ip), vehicle: saline with Tween-80”, the survivor count is listed as 3 of 3.

For the compound `CCOC(=O)c1cc(=O)c2c(ccc3cc(OC)ccc32)[nH]1`, the T/C (dose: 12.5 mg/kg/injection, schedule: Q04DX002 (ip), vehicle: carboxymethylcellulose (CMC)) is given as 92, 97, 98, 100 % of control; the T/C (dose: 25.0 mg/kg/injection, schedule: Q04DX002 (ip), vehicle: carboxymethylcellulose (CMC)) was 95, 96, 108, 126 % of control; the T/C (dose: 50.0 mg/kg/injection, schedule: Q04DX002 (ip), vehicle: carboxymethylcellulose (CMC)) is 96, 103, 104 % of control (2×).

Consider `CN1CCC=C(C(=O)N2c3ccccc3CCc3ccccc32)C1`, for which the survivor count (dose: 200.0 mg/kg/injection, schedule: Q01DX009 (ip), vehicle: saline) is 3 of 6 and the survivor count under setting [9] was 0 of 6.

Consider `Cc1ccc(CSC(=N)N)cc1`, for which the survivor count was 0 of 4 under setting [1] and 0 of 4 under setting [2].

Consider `Nc1nccnc1C(=O)NOCc1ccccc1`, for which the T/C (dose: 200.0 mg/kg/injection, schedule: Q04DX002 (ip), vehicle: Klucel (hydroxypropylcellulose) (HPC)) was 130 % of control.

Regarding `CC1(Br)OC(=O)C(C)(Br)OC1=O` (stereo not drawn), the survivor count under setting [9] was 4 of 6.

For `CC(=O)C(=Cc1ccccc1)C(C)=O`, the survivor count under setting [8] is given as 6 of 6.
